# Data from the supplement of paper PMC12595434, “Development of retinoid nuclear receptor pathway antagonists through targeting aldehyde dehydrogenase 1A3” (iScience, 2025).
# By UniProt entry, the sequences of proteins in these tests, tags left out. Where a name states a change or a piece, a line headed by the entry shows the natural chain unless it says otherwise.
# UniProt O94923: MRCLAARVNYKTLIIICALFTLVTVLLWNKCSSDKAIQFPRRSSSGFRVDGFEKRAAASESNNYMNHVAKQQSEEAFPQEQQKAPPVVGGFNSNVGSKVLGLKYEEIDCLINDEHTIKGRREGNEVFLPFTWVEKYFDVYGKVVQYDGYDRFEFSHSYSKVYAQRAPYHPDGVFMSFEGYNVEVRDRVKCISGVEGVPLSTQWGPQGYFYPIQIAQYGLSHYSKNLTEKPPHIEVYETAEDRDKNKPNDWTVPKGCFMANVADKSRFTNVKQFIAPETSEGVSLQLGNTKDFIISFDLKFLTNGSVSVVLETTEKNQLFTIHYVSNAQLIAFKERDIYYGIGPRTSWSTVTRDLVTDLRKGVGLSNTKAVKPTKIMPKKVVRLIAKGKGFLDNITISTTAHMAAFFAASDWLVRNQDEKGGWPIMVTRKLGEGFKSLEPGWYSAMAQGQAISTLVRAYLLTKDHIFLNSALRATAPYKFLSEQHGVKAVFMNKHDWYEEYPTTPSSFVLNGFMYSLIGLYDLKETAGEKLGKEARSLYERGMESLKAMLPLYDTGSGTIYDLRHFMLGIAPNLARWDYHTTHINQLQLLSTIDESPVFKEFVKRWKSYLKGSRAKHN
# UniProt O95258: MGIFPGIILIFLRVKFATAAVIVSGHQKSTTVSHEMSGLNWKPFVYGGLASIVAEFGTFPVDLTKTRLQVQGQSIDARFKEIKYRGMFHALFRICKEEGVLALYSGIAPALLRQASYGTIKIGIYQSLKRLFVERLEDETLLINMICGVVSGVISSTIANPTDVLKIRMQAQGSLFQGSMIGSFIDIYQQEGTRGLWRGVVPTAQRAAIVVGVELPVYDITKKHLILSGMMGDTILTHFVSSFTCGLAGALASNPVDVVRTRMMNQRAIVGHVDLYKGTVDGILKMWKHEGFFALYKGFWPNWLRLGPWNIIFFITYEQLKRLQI
# UniProt O75935, whole entry: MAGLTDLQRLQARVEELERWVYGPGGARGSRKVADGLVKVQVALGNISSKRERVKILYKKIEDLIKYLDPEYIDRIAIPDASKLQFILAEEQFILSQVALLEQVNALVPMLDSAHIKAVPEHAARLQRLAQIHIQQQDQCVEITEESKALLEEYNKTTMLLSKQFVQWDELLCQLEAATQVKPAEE
# UniProt O75970: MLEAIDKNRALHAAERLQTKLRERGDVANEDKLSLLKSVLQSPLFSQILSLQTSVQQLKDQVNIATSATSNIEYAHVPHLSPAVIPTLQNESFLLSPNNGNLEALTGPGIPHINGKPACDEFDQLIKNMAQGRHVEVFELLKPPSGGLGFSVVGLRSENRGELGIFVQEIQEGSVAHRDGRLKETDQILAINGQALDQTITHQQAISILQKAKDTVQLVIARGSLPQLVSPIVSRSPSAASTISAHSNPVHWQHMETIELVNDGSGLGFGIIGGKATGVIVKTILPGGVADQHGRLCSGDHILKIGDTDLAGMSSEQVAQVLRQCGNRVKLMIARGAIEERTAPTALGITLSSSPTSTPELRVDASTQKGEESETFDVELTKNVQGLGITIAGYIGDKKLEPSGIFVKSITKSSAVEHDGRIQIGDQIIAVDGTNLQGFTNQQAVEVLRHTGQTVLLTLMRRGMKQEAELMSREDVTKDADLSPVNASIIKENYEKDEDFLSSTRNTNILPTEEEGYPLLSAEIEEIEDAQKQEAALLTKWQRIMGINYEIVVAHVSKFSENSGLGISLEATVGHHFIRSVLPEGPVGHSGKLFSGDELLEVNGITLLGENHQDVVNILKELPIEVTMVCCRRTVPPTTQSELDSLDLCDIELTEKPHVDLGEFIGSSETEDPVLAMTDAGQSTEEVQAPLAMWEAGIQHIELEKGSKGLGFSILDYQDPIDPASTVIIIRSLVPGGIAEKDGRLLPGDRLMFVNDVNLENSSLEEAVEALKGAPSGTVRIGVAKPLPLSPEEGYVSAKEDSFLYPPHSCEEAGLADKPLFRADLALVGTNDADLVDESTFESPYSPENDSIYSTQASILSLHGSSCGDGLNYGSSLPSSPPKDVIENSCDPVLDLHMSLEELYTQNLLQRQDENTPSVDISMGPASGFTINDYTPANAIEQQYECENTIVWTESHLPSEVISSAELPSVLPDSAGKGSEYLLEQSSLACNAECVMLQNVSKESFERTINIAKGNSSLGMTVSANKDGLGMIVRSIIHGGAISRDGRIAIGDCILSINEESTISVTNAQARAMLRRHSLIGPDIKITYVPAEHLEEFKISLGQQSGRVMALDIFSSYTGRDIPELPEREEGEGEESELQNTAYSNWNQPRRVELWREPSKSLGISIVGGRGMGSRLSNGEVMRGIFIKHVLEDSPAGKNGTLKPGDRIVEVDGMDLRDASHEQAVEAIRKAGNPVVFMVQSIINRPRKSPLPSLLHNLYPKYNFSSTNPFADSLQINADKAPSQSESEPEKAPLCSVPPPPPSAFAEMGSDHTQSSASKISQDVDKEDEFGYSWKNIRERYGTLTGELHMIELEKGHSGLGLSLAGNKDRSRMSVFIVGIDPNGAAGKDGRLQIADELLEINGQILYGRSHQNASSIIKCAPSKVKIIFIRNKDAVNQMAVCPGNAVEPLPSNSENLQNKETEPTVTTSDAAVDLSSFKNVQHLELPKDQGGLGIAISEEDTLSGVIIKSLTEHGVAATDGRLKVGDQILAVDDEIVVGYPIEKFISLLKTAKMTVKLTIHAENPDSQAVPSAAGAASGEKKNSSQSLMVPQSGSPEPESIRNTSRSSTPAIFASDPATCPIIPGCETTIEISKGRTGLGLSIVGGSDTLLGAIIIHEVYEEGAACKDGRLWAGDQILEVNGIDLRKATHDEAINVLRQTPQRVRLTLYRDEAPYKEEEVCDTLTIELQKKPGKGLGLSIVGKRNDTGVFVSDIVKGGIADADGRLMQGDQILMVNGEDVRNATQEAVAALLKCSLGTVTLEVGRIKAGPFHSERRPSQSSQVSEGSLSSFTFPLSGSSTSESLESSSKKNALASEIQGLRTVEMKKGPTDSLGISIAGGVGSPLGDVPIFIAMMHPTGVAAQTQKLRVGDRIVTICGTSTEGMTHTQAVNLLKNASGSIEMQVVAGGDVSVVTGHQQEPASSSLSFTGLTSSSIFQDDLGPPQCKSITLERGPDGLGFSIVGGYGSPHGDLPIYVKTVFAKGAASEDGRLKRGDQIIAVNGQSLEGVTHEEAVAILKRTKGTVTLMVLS
# UniProt P06737: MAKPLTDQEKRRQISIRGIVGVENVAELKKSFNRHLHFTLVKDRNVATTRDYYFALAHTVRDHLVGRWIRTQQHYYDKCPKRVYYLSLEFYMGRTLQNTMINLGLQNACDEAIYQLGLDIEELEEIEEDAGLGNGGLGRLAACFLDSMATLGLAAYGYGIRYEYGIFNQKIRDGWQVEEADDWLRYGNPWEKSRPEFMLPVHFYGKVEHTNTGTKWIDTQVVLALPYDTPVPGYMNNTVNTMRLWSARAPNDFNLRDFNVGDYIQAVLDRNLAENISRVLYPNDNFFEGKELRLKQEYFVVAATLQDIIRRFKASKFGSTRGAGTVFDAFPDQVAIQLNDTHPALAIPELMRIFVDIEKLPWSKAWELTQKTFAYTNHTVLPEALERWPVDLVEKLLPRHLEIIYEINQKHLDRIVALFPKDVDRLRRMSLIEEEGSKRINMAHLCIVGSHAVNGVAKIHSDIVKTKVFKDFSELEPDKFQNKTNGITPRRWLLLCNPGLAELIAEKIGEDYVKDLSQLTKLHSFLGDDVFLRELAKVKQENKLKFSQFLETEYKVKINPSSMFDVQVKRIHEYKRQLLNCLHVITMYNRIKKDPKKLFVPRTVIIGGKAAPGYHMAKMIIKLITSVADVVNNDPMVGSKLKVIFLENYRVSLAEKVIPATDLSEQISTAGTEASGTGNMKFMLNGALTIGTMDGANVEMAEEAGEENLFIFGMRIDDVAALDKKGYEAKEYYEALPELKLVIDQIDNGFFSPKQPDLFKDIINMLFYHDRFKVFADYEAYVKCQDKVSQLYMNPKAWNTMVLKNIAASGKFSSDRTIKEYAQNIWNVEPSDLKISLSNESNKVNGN
# UniProt O94927: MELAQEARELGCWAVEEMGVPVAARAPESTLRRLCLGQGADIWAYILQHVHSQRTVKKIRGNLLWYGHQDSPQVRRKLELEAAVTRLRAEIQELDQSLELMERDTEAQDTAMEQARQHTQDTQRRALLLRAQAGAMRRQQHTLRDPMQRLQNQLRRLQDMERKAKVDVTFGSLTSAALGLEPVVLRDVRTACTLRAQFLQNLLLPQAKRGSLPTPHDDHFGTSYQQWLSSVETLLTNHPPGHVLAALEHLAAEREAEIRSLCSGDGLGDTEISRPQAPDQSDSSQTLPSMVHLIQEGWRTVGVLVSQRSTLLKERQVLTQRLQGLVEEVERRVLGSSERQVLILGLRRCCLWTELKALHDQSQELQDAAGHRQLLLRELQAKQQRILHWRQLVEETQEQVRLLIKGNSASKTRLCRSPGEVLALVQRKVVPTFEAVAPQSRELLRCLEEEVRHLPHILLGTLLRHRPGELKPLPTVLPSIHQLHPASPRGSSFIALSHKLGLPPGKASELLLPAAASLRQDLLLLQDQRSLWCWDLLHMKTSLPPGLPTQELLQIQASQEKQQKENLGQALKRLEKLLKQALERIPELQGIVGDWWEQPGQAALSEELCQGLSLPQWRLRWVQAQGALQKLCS
# UniProt O95182, whole entry: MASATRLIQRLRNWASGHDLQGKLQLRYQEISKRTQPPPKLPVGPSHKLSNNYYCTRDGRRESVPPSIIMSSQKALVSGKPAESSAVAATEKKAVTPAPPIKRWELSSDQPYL
# UniProt O95295: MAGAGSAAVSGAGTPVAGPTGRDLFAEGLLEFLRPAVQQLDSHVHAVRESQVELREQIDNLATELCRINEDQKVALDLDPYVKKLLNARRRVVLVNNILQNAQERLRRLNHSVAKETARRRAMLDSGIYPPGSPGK
# UniProt P04233: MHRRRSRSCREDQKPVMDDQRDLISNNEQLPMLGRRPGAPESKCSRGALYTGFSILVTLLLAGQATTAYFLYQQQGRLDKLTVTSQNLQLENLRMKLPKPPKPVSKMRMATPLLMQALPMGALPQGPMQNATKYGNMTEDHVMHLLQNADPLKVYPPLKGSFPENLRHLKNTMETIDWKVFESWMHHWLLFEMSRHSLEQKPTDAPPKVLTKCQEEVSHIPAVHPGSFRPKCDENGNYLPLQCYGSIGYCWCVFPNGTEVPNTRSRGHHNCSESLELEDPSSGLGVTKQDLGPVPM
# UniProt O94817, whole entry: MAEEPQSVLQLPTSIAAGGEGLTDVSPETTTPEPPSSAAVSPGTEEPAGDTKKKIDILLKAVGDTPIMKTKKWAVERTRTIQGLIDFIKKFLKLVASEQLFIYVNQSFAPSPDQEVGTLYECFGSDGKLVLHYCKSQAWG
# UniProt P00519, whole entry: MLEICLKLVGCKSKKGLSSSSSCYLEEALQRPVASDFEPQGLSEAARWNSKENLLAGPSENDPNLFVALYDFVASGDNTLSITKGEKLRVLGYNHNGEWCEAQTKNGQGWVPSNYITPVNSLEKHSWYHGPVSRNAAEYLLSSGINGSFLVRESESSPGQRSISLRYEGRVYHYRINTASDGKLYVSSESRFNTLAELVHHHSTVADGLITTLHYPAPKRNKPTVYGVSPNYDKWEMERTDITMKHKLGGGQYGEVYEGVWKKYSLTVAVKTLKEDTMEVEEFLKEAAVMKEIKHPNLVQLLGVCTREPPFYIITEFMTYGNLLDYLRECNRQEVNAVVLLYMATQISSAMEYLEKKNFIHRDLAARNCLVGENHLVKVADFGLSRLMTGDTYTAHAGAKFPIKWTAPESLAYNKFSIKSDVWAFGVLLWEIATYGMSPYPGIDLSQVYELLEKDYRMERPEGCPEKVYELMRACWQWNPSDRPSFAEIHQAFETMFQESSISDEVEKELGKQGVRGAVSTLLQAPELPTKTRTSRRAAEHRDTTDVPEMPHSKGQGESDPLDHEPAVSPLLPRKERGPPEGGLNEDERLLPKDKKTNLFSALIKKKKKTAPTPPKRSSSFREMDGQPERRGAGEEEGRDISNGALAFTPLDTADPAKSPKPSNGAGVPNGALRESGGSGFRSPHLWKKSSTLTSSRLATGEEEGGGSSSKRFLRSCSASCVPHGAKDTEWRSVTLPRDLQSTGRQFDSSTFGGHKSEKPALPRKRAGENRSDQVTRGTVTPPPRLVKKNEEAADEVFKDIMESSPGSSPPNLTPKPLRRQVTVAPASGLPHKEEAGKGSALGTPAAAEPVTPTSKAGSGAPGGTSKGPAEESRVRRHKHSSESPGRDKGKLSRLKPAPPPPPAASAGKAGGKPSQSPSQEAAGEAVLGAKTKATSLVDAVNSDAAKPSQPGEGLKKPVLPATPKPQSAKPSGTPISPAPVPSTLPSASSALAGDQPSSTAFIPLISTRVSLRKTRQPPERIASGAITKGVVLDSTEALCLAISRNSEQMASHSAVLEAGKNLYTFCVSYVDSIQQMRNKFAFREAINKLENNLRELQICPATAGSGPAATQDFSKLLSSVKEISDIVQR
# The list shows a part of the results. Single values of this set are uncertain.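 Many melting curves are irregular; where none melted, Tm was taken as 64 °C.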
# Compound: CCc1cnccc1C(=O)Nc1cc2c(cc1F)NC(=O)CC2
# Test: melting temperature shift (DMSO Tm minus MBE1-treated Tm) in cellular thermal proteome profiling; higher = less thermal stabilization by MBE1 (negative = stabilized by MBE1)
# Conditions: A375
Target,melting temperature shift (MBE1 concentration: 100 nM),melting temperature shift (MBE1 concentration: 1 uM)
GLCE (UniProt O94923),-0.651 °C,-0.0201 °C
UniProt O95258,-1.87 °C,-0.372 °C
DCTN3 (UniProt O75935),-0.0122 °C,0.299 °C
MPDZ (UniProt O75970),-1.48 °C,-0.136 °C
PYGL (UniProt P06737),-0.617 °C,-0.181 °C
UniProt P01112,-0.34 °C,-0.826 °C
HAUS5 (UniProt O94927),-0.39 °C,-0.713 °C
NDUFA7 (UniProt O95182),0.342 °C,0.991 °C
ZWINT (UniProt O95229),1.06 °C,-0.275 °C
HERC2 (UniProt O95714),-1.3 °C,-0.433 °C
SNAPIN (UniProt O95295),-0.368 °C,-3.34 °C
UniProt P04233,-1.45 °C,1.42 °C
KRAS (UniProt P01116),-0.679 °C,-0.941 °C
NFAT5 (UniProt O94916),-0.0794 °C,0.293 °C
CLPX (UniProt O76031),0.551 °C,0.36 °C
UniProt O94817,0.141 °C,0.165 °C
UniProt P04439,-2.07 °C,-1.54 °C
ABL1 (UniProt P00519),-0.743 °C,-1.23 °C
MPC2 (UniProt O95563),-2.1 °C,0.00611 °C
OAT (UniProt P04181),-1.18 °C,-0.0916 °C
UniProt P07093,-0.738 °C,-1.87 °C

# As a working copy, part of the list above.
Target,melting temperature shift (MBE1 concentration: 100 nM),melting temperature shift (MBE1 concentration: 1 uM)
MPDZ (UniProt O75970),-1.48 °C,-0.136 °C
PYGL (UniProt P06737),-0.617 °C,-0.181 °C
UniProt P01112,-0.34 °C,-0.826 °C
HAUS5 (UniProt O94927),-0.39 °C,-0.713 °C
NDUFA7 (UniProt O95182),0.342 °C,0.991 °C
